This experiment deals with L1210 leukemia ip in BDF1 mice, survival T/C. The experiment can be described thus: NCI In Vivo Anticancer Drug Screen. Data for tumor model L1210 Leukemia (intraperitoneal) in B6D2F1 (BDF1) mice. Conditions: T/C endpoint: mean survival time, higher T/C = longer survival.
Setting [1] is: dose: 400.0 mg/kg/injection, schedule: Q04DX002 (ip), vehicle: saline.
The mark [2] stands for this setting: dose: 400.0 mg/kg/injection, schedule: Q01DX001 (ip), vehicle: carboxymethylcellulose (CMC).
The mark [3] stands for this setting: dose: 200.0 mg/kg/injection, schedule: Q01DX009 (ip), vehicle: saline with Tween-80.
Setting [4] is: dose: 200.0 mg/kg/injection, schedule: Q01DX001 (ip), vehicle: saline with Tween-80.
Where [5] appears, read: dose: 400.0 mg/kg/injection, schedule: Q01DX001 (ip), vehicle: saline with Tween-80.
[6] abbreviates: dose: 200.0 mg/kg/injection, schedule: Q04DX003 (ip), vehicle: Klucel (hydroxypropylcellulose) (HPC).
Setting [7] is: dose: 400.0 mg/kg/injection, schedule: Q04DX003 (ip), vehicle: Klucel (hydroxypropylcellulose) (HPC).
Setting [8] is: dose: 100.0 mg/kg/injection, schedule: Q01DX009 (ip), vehicle: saline.
Setting [9] is: dose: 400.0 mg/kg/injection, schedule: Q04DX003 (ip), vehicle: saline.
Setting [10] is: dose: 400.0 mg/kg/injection, schedule: Q01DX009 (ip), vehicle: saline with Tween-80.
Setting [11] is: dose: 400.0 mg/kg/injection, schedule: Q04DX003 (ip), vehicle: saline with Tween-80.
Setting [12] is: dose: 400.0 mg/kg/injection, schedule: Q01DX001 (ip), vehicle: saline.
[13] abbreviates: dose: 100.0 mg/kg/injection, schedule: Q01DX009 (ip), vehicle: Klucel (hydroxypropylcellulose) (HPC).
Where [14] appears, read: dose: 200.0 mg/kg/injection, schedule: Q01DX001 (ip), vehicle: saline.
The mark [15] stands for this setting: dose: 150.0 mg/kg/injection, schedule: Q01DX001 (ip), vehicle: saline.
The mark [16] stands for this setting: dose: 300.0 mg/kg/injection, schedule: Q01DX001 (ip), vehicle: saline.

The list does not hold the whole screen: it is rich in T/C values a quarter to a half above the control, in often repeated tests (any T/C) and in doses without a T/C. Other doses and runs of a compound stand elsewhere. T/C is the treated group as % of the vehicle group. Some entries give survivors of the animals treated and no T/C: the source holds a T/C of zero for them, seemingly a mark for toxic or unscored doses. Some survivor counts are full or nearly so, which does not show that the dose was tolerated: survival well below the control is almost never listed, so the zero probably covers shortened survival too. Counts of survivors are from the toxicity check (mostly the fifth day) where no day follows; animals may have died later. Schedule codes are those of the source, read here as Q, the interval in days (D) or hours (H), X, the number of doses. Some schedule codes hold Z or #, which are not explained here. For survival time, this PubChem deposit counts one and a half times the control or more as active, and values a quarter to a half above the control carry no call in these data; other NCI protocols may use other cut-offs. Some entries hold several experiments; the values are given in rising order.

Regarding `COC(=O)C1=C2Nc3ccccc3C23CCN2CC4(CC5CC67CCOC6CCN6CCC8(c9cccc(OC)c9N(C4)C58O)C67)C4OCCC4(C1)C23` (configuration not stated), the T/C (dose: 100.0 mg/kg/injection, schedule: Q04DX003 (ip), vehicle: Klucel (hydroxypropylcellulose) (HPC)) is 128 % of control.

With `NC(CCl)=NC1CC1`, the survivor count (dose: 100.0 mg/kg/injection, schedule: Q04DX002 (ip), vehicle: saline) is recorded as 0 of 3; the survivor count (dose: 200.0 mg/kg/injection, schedule: Q04DX002 (ip), vehicle: saline) is listed as 0 of 3; the survivor count under setting [1] is reported as 0 of 3.

In the case of `Cc1ccc(CNCC(=O)O)cc1`, the survivor count (dose: 400.0 mg/kg/injection, schedule: Q04DX003 (ip), vehicle: water) is given as 0 of 6.

As to `Nc1nc(N)c(N=O)c(Nc2ccc(I)cc2)n1`, the survivor count (dose: 200.0 mg/kg/injection, schedule: Q01DX009 (ip), vehicle: acetone) is on record as 3 of 6 and the survivor count under setting [2] is recorded as 2 of 6.

As for `COc1ccccc1-n1c(O)c(N=Nc2ccc(Cl)cc2)c(=O)n(-c2ccc(Br)cc2)c1=S`, the survivor count (dose: 400.0 mg/kg/injection, schedule: Q01DX001 (ip), vehicle: Klucel (hydroxypropylcellulose) (HPC)) is given as 3 of 6.

Take `CCC(C)(OC(=O)c1ccc([N+](=O)[O-])cc1)C(C)C` (configuration not stated): the survivor count (dose: 300.0 mg/kg/injection, schedule: Q04DX002 (ip), vehicle: saline with Tween-80) is on record as 3 of 3.

Turning to `COC1(c2ccc(Cl)cc2)OC(=O)C(c2ccccc2)=C1Cc1ccccc1` (configuration not stated), the survivor count (dose: 50.0 mg/kg/injection, schedule: Q01DX009 (ip), vehicle: saline with Tween-80) is given as 3 of 3; the survivor count (dose: 100.0 mg/kg/injection, schedule: Q01DX009 (ip), vehicle: saline with Tween-80) is 3 of 3; the survivor count under setting [3] is on record as 3 of 3.

On to `O=C(O)CC(CS(=O)O)C(=O)O` (configuration not stated), for which the survivor count under setting [4] is 1 of 3 and the survivor count under setting [5] was 0 of 3.

`CNC(c1ccccc1)C(O)c1ccccc1` (configuration not stated): the survivor count reads like this: under setting [6], 2 of 6; under setting [7], 0 of 6.

As for `CN(C)c1ccc(-c2cccc[n+]2C)cc1`, the survivor count under setting [8] is on record as 0 of 6; the survivor count (dose: 200.0 mg/kg/injection, schedule: Q01DX009 (ip), vehicle: saline) was 0 of 6; the survivor count (dose: 400.0 mg/kg/injection, schedule: Q01DX009 (ip), vehicle: saline) is given as 0 of 6.

`CNCCN1CCCC1`: the survivor count under setting [9] is listed as 2 of 6.

In the case of `O=C1c2cccc3cccc(c23)C(=O)N1CCCCCCCCCCN1C(=O)c2cccc3cccc(c23)C1=O`, the survivor count (dose: 200.0 mg/kg/injection, schedule: Q01DX009 (ip), vehicle: gum acacia) is recorded as 6 of 6.

As for `CNc1c([N+](=O)[O-])ncn1C`, the survivor count by setting is: (dose: 200.0 mg/kg/injection, schedule: Q04DX003 (ip), vehicle: saline) 2 of 6; under setting [9], 0 of 6.

As for `Cc1nc2c(C(N)=O)nc(C)n2nc1C`, the survivor count (dose: 200.0 mg/kg/injection, schedule: Q04DX002 (ip), vehicle: saline with Tween-80) is on record as 6 of 6 and the survivor count (dose: 400.0 mg/kg/injection, schedule: Q04DX002 (ip), vehicle: saline with Tween-80) was 6 of 6.

Turning to `O=C(Cc1cccc2ccccc12)N/N=C/c1ccccc1O`, the survivor count is listed as 5 of 6 under setting [3] and 4 of 6 under setting [10].

For the molecule `CCOC(OCC)/C(C)=N\NC(N)=S`, where the note is “dose: 960.0 mg/kg/injection, schedule: Q01DX Z (oral), vehicle: carboxymethylcellulose (CMC)”, the survivor count is reported as 4 of 6.

As to `c1ccc2[nH]c(CN3CCCCC3)cc2c1`, the survivor count is listed as 3 of 6 (dose: 100.0 mg/kg/injection, schedule: Q04DX003 (ip), vehicle: saline with Tween-80); 0 of 6 (dose: 200.0 mg/kg/injection, schedule: Q04DX003 (ip), vehicle: saline with Tween-80); 0 of 6 under setting [11].

Regarding `C=C1OC(=O)C(=O)N1CC(=O)O`, the survivor count under setting [12] is 1 of 4.

As for `CCOC(=O)C1c2cc3c(cc2C(c2cc(OC)c(OC)c(OC)c2)C2C(=O)OCC12)OCO3` (configuration not stated), the T/C (dose: 6.0 mg/kg/injection, schedule: Q01DX009 (ip), vehicle: Klucel (hydroxypropylcellulose) (HPC)) was 141 % of control. Also, the survivor count is 6 of 6 (dose: 12.0 mg/kg/injection, schedule: Q01DX009 (ip), vehicle: Klucel (hydroxypropylcellulose) (HPC)); 1 of 6 (dose: 25.0 mg/kg/injection, schedule: Q01DX009 (ip), vehicle: Klucel (hydroxypropylcellulose) (HPC)); 0 of 6 (dose: 50.0 mg/kg/injection, schedule: Q01DX009 (ip), vehicle: Klucel (hydroxypropylcellulose) (HPC)); 5 of 6 under setting [13]; 0 of 6 (dose: 200.0 mg/kg/injection, schedule: Q01DX009 (ip), vehicle: Klucel (hydroxypropylcellulose) (HPC)); 0 of 6 (dose: 400.0 mg/kg/injection, schedule: Q01DX009 (ip), vehicle: Klucel (hydroxypropylcellulose) (HPC)).

Turning to `CCCCN(CCCC)CC(O)c1cnc2c(Cl)cc(Cl)cc2c1Cl` (configuration not stated), the survivor count under setting [10] is on record as 4 of 6.

As to `CC1(C)N=C(N)N=C(N)N1c1ccc(Cl)cc1Cl`, the survivor count is on record as 1 of 6 under setting [13]; 0 of 3 under setting [14]; 2 of 6 under setting [6]; 0 of 3 under setting [12]; 0 of 6 under setting [7].

As to `NC(CCl)=NCCC1=NCCN1`, under setting [1], the survivor count was 0 of 3.

For the molecule `CCN(CC)CCCOC(=O)c1ccc(NC(C)(C)[N+](=O)[O-])cc1`, the survivor count is on record as 1 of 6 under setting [8], 0 of 6 under setting [14] and 0 of 6 under setting [12].

`CCOC(=O)C1(NC(=O)N(CCCl)N=O)CCCCC1`: the T/C (dose: 62.0 mg/kg/injection, schedule: Q01DX001 (ip), vehicle: other) was 126 and 144 % of control.

With `CCC[CH2][Sn]([Cl])([CH2]Cl)[CH2]CCC`, the survivor count by setting is: (dose: 100.0 mg/kg/injection, schedule: Q01DX001 (ip), vehicle: saline with Tween-80) 0 of 6; under setting [4], 0 of 6; under setting [5], 0 of 6.

On to `O=S1(=O)C=CC1`, for which the survivor count runs as follows: (dose: 100.0 mg/kg/injection, schedule: Q01DX001 (ip), vehicle: saline) 2 of 4; under setting [14], 0 of 4; under setting [12], 0 of 4.

For the molecule `C[N+]1(CC2CO2)CCCCCC1` (configuration not stated), the survivor count is 3 of 6 under setting [15] and 0 of 6 under setting [16].

For `C=C(C)[C@H]1CN[C@H](C(=O)O)[C@H]1CC(=O)O`, the survivor count (dose: 75.0 mg/kg/injection, schedule: Q01DX001 (ip), vehicle: saline) was 0 of 6; the survivor count under setting [15] is 0 of 6; the survivor count under setting [16] is 1 of 6.

In the case of `O=C(CC(O)(C(F)(F)F)C(F)(F)F)c1cccs1`, the survivor count runs as follows: under setting [3], 3 of 6; under setting [11], 5 of 6.

As to `O=S(=O)([O-])[O-].[Cu+2].[OH2+]CC[N-]CC[OH2+].[OH2+]CC[N-]CC[OH2+]`, the survivor count is given as 1 of 4 (dose: 50.0 mg/kg/injection, schedule: Q01DX001 (ip), vehicle: carboxymethylcellulose (CMC)); 0 of 4 (dose: 100.0 mg/kg/injection, schedule: Q01DX001 (ip), vehicle: carboxymethylcellulose (CMC)); 0 of 4 (dose: 200.0 mg/kg/injection, schedule: Q01DX001 (ip), vehicle: carboxymethylcellulose (CMC)); 0 of 4 under setting [2].
